Here are results for 64 compounds from the supplement of paper PMC3047530.

± gives the standard deviation of the averaged measurements. Some of the results follow. Single values are uncertain, as repeats are few or missing.

The test system of the assay is Geomyces destructans. Description: growth inhibition relative to DMSO control; higher = stronger growth inhibition. As to conditions: 10 µM; 15 °C; incubation time 10 days.
For the compound `COc1ccc2ccc(=O)oc2c1`, the growth inhibition worked out at 2.91%.

Regarding `NS(=O)(=O)c1cc(C(=O)O)c(NCc2ccco2)cc1Cl`, the growth inhibition was 18.9%.

Take `Cc1c(C(N)=O)cc([N+](=O)[O-])cc1[N+](=O)[O-]`: the growth inhibition is -8.62%. In the case of `C=C[C@H]1CN2CC[C@H]1C[C@@H]2[C@@H](O)c1ccnc2ccc(OC)cc12`, the growth inhibition was -19.6%.

With `C[C@]12CC[C@H]3C(=CCc4cc(O)ccc43)[C@@H]1CCC2=O`, the growth inhibition came to 13.1%.

Take `N=C(N)N`: the growth inhibition was -7.71%.

For the compound `CN1C(C(=O)Nc2ccccn2)=C(O)c2sccc2S1(=O)=O`, the growth inhibition was -20.5%. The same measure for `CC(=O)Oc1ccc2c(c1)CC[C@@H]1[C@@H]2CC[C@]2(C)[C@@H](OC(C)=O)CC[C@@H]12`: -9.58%; for `COc1ccc(C2C(=O)c3ccccc3C2=O)cc1`: 5.28%. Consider `Cc1cccc(C)c1NC(=O)C1CCCCN1C` (centres undefined), for which the growth inhibition was -26.6%. In the case of `COC(=O)C[C@H]1C(C)(C)C(=O)[C@@H]2CC3=C(CC[C@]4(C)C3=CC(=O)O[C@H]4c3ccoc3)[C@@]1(C)C2=O`, the growth inhibition was -3.33%. As for `O=C(Nc1ccccc1)c1ccccc1O`, the growth inhibition was found to be 5.44%. Next, `CCC(=O)OC1[C@@H]2CC3=C4CC(=O)O[C@@H](c5ccoc5)[C@]4(C)CCC3[C@@](C)(C2=O)[C@@H](CC(=O)OC)C1(C)C` (some centres undefined): -2.7%; `CN(C)CCC=C1c2ccccc2CCc2ccccc21`: -28.2%; `NC(N)=NCCC[C@H](N[C@H](CCC(=O)O)C(=O)O)C(=O)O`: -13.1%. The same measure for `CS(=O)(=O)c1ccc(C2=C(c3ccccc3)C(=O)OC2)cc1`: -14.3%; for `CCC/C=C1\OC(=O)C2=C1CCC=C2`: -1.21%. For the compound `COc1ccc2c(c1OC)OC[C@@H](c1ccc(OC)c(OC)c1OC)C2`, the growth inhibition is -16.6%. The same measure for `COc1cc(Cc2cnc(N)nc2N)cc(OC)c1OC`: -29.7%; for `CCN(CC)CCOC(=O)C(c1ccccc1)C1CCCCC1` (centres undefined): -1.27%.

As to `C=CCc1ccc(OC(=O)c2ccccc2)c(OC)c1`, the growth inhibition was -7.04%. The same measure for `CCCCC(CC)CN1CN(CC(CC)CCCC)CC(C)(N)C1` (centres undefined): -32.2%; for `COc1cccc2c1CCC1=CC(=O)CC[C@@]12C`: 3.17%. As for `CC(=O)O[C@H]1CC[C@]2(C)C3C(=O)[C@@H](OC(C)=O)[C@@]4(C)C(C[C@@H]5O[C@]6(CCC(C)CO6)[C@@H](C)[C@@H]54)C3CC[C@H]2C1` (some centres undefined), the growth inhibition is -1.75%. Next, `CO[C@@]1(NC(=O)Cc2cccs2)C(=O)N2C(C(=O)O)=C(COC(N)=O)CS[C@@H]21`: -5.74%; `CC[C@H](CC[C@@H](C)[C@H]1CC[C@H]2[C@@H]3CC=C4C[C@@H](O)CC[C@]4(C)[C@H]3CC[C@]12C)C(C)C` [beta-SITOSTEROL]: 16.6%. The same measure for `CCCN(CCC)C(=O)C(CCC(=O)O)NC(=O)c1ccccc1` (centres undefined): -12.4%; for `CN1CCC(=C2c3ccccc3CC(=O)c3sccc32)CC1`: -37.1%; for `CC(=O)Oc1c(Cl)c(C)c2c(c1Cl)OC(=O)c1c(C)c(Cl)c(OC(C)=O)c(Cl)c1O2`: 2.03%. On to `CC(=O)NCCc1c[nH]c2ccc(O)cc12`, for which the growth inhibition was -11.2%. In the case of `C[C@]12CCC3c4ccc(OC(=O)c5ccccc5)cc4CCC3C1CCC2=O` (some centres undefined), the growth inhibition worked out at 11%. `Cn1ccnc1S`: the growth inhibition is 8.18%.

On to `Nc1c(Br)cc(Br)cc1CN[C@H]1CC[C@H](O)CC1`, for which the growth inhibition is -7.82%.

`Oc1ccc(Cl)c2cccnc12`: the growth inhibition was 88.7%. Turning to `COc1cc(-c2coc3cc(OC)c(OC)c(OC)c3c2=O)cc(OC)c1OC`, the growth inhibition worked out at 6.63%.

In the case of `CC(C)(Sc1cc(C(C)(C)C)c(O)c(C(C)(C)C)c1)Sc1cc(C(C)(C)C)c(O)c(C(C)(C)C)c1`, the growth inhibition was -0.764%. The same measure for `CN1CCCN=C1COC(=O)C(O)(c1ccccc1)C1CCCCC1` (centres undefined): -13.8%; for `CC(C)(Oc1ccc(Cl)cc1)C(=O)O`: -6.04%; for `COc1ccc(-c2c(O)c3c(OC)c4c(cc3oc2=O)OC(C)(C)C=C4)cc1`: 4.96%.

Consider `CC(=O)NO`, for which the growth inhibition was -4.77%. The same measure for `COc1cc(O)c2c(=O)c(O)c(-c3ccc(O)c(O)c3)oc2c1`: -9.59%; for `CC(C)(S)[C@@H](N)C(=O)O`: -17.4%.

Consider `CO[C@H]1C[C@H](O[C@H]2[C@H](C)[C@@H](O[C@@H]3O[C@H](C)C[C@H](N(C)C)[C@H]3OC(C)=O)[C@@H](C)C[C@@]3(CO3)C(=O)[C@H](C)[C@@H](OC(C)=O)[C@@H](C)[C@@H](C)OC(=O)[C@@H]2C)O[C@@H](C)[C@@H]1OC(C)=O`, for which the growth inhibition is -4.57%. The same measure for `COc1cc(C/C=C/c2ccccc2)c(OC)cc1O`: 29.7%. The same measure for `CC(=O)N[C@@H](CC(=O)O)C(=O)O`: -31.7%; for `O=C1O[C@H](CO)[C@@H](O)[C@H](O)[C@H]1O`: -6.86%; for `CC(=O)Oc1c(-c2ccccc2)oc2c(CC=C(C)C)c3c(c(OC(C)=O)c2c1=O)C=CC(C)(C)O3`: -4.96%.

In the case of `CCCCCCCCCCC[C@@H](C[C@@H]1OC(=O)[C@H]1CCCCCC)OC(=O)[C@H](CC(C)C)NC=O`, the growth inhibition is -29.7%. Next, `COc1c(O)cc2c(-c3ccccc3)cc(=O)oc2c1OC`: 4.01%; `C=C1C2CC[C@@]3(C)[C@H](c4ccoc4)OC(=O)C[C@]13O[C@H]1CC(O)C(C)(C)C(CC(=O)OC)[C@@]21C` (stereo partly drawn) [3alpha-HYDROXY-3-DEOXYANGOLENSIC ACID METHYL ESTER]: -1.35 ± 14%.

As to `NC12CC3CC(CC(C3)C1)C2`, the growth inhibition is -8.4%. Next, `Clc1ccc(COC(Cn2ccnc2)c2ccc(Cl)cc2Cl)c(Cl)c1` (centres undefined): -15.2%. Next, `Cc1cc(=O)n(-c2ccccc2)n1C`: -13.2%; `N=C1C=CC(=C(c2ccc(N)cc2)c2ccc(N)cc2)C=C1`: 59.4%.

Consider `CC(=O)OC1CC[C@@]2(C)C(CC[C@H]3[C@@H]4CC=C(C(C)=O)[C@@]4(C)C(=O)C[C@@H]32)C1` (some centres undefined), for which the growth inhibition was -11.5%. As to `C=CC(C)(O)CCC1C(=C)CC(O)C2C(C)(C)CCCC12C` (centres undefined), the growth inhibition was -12.2%. On to `CC(=O)N(O)CCCCCNC(=O)CCC(=O)N(O)CCCCCNC(=O)CCC(=O)N(O)CCCCCN`, for which the growth inhibition was -4.67%.

On to `COC(=O)C[C@H]1C(C)(C)[C@@H](OC(C)=O)[C@]2(OC(C)=O)CC3=C4CC(=O)O[C@@H](c5ccoc5)[C@]4(C)CCC3[C@@]1(C)C2OC(C)=O` (some centres undefined), for which the growth inhibition was -2.06%.

For `NCCCCNCCCN`, the growth inhibition was -0.551%. As to `CN1CC(=O)NC1=N`, the growth inhibition was 6.9%.

As to `O=C1C=C2CC3(O)COc4c(ccc(O)c4O)C3=C2C=C1O` (centres undefined), the growth inhibition was -5.72%.

Turning to `C[C@]12CC[C@@H]3c4ccc(O)cc4CC[C@H]3[C@@H]1CC[C@@H]2OC(=O)CCC1CCCC1`, the growth inhibition turned out to be 29%.

Turning to `CCC(Cc1c(I)cc(I)c(N)c1I)C(=O)O` (centres undefined), the growth inhibition is -22.1%. Take `CN1CCc2cccc3c2[C@H]1Cc1ccc(O)c(O)c1-3`: the growth inhibition is -5.53%.
